Results taken from the supplement of paper PMC10849652.
Some of the results follow.

Sequences of proteins named here, by UniProt entry; tags and fusion partners are left off. A change or cut given only in a name is not applied to a line headed by its entry.
UniProt P60604: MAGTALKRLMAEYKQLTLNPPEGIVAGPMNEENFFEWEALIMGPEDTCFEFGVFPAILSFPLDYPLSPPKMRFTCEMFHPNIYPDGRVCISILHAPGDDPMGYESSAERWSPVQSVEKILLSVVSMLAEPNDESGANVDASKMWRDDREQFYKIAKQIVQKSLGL
UniProt Q9NPD8: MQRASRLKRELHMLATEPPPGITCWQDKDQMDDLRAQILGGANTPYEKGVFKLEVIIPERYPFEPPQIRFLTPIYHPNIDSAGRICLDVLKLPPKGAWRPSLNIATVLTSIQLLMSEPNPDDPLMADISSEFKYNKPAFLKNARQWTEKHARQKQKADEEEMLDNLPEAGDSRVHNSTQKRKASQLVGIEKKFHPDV
UniProt Q9NUQ3: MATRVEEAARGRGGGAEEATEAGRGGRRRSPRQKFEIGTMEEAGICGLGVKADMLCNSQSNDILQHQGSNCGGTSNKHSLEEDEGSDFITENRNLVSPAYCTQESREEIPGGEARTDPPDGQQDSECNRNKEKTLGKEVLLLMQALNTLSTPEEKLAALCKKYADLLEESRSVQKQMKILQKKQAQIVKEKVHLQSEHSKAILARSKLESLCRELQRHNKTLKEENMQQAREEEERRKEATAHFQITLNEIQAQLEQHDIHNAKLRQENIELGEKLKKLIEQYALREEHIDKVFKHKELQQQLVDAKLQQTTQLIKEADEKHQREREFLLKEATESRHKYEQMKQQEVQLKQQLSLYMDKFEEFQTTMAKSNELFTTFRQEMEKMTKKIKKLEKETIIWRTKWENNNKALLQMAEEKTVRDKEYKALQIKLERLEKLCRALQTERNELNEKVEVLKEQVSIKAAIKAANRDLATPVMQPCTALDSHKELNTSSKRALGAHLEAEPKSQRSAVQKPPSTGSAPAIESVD
UniProt Q9H832: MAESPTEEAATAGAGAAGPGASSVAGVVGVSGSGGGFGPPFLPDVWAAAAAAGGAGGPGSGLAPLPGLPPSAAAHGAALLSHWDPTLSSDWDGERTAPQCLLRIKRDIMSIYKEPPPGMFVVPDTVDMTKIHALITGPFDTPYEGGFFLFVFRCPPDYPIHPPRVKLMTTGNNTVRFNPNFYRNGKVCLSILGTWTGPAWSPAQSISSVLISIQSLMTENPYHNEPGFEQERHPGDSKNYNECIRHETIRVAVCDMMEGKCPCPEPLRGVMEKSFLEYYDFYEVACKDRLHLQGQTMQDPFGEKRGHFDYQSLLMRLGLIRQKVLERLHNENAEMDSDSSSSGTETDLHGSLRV
UniProt P10599: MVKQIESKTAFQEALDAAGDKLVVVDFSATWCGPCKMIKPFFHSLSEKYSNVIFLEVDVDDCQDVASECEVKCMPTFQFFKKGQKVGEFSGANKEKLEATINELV
UniProt Q9GZX9: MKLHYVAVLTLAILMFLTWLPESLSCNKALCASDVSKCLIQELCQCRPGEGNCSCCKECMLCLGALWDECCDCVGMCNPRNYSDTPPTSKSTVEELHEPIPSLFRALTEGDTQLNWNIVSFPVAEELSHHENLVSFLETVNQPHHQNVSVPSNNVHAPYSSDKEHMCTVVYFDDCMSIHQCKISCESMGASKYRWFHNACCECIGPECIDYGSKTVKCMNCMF
UniProt P07437, whole entry, looked up: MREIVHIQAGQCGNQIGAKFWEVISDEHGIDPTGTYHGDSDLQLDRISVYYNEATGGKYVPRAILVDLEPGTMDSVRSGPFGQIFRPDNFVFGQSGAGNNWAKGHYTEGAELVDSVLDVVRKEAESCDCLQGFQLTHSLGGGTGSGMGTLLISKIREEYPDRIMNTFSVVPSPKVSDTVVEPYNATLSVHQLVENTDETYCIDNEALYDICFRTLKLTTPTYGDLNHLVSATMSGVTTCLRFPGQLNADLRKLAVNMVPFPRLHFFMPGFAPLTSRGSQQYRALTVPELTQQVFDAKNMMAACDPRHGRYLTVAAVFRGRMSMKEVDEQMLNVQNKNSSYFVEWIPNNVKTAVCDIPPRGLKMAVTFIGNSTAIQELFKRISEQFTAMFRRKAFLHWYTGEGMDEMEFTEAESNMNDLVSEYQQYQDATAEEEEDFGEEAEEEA
UniProt Q9NZ09: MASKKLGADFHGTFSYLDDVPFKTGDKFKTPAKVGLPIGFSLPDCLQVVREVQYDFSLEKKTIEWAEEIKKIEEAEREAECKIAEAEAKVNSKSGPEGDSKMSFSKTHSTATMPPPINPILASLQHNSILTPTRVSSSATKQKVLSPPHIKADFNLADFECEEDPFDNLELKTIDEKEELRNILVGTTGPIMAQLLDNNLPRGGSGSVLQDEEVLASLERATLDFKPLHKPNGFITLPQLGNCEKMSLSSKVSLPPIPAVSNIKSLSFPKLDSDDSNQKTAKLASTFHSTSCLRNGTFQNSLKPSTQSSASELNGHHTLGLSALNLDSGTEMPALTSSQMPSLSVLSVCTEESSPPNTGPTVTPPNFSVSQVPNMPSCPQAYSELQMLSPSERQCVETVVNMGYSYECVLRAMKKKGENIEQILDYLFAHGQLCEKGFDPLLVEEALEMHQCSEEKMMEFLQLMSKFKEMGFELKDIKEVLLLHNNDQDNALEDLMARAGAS
UniProt O43156, whole entry, looked up: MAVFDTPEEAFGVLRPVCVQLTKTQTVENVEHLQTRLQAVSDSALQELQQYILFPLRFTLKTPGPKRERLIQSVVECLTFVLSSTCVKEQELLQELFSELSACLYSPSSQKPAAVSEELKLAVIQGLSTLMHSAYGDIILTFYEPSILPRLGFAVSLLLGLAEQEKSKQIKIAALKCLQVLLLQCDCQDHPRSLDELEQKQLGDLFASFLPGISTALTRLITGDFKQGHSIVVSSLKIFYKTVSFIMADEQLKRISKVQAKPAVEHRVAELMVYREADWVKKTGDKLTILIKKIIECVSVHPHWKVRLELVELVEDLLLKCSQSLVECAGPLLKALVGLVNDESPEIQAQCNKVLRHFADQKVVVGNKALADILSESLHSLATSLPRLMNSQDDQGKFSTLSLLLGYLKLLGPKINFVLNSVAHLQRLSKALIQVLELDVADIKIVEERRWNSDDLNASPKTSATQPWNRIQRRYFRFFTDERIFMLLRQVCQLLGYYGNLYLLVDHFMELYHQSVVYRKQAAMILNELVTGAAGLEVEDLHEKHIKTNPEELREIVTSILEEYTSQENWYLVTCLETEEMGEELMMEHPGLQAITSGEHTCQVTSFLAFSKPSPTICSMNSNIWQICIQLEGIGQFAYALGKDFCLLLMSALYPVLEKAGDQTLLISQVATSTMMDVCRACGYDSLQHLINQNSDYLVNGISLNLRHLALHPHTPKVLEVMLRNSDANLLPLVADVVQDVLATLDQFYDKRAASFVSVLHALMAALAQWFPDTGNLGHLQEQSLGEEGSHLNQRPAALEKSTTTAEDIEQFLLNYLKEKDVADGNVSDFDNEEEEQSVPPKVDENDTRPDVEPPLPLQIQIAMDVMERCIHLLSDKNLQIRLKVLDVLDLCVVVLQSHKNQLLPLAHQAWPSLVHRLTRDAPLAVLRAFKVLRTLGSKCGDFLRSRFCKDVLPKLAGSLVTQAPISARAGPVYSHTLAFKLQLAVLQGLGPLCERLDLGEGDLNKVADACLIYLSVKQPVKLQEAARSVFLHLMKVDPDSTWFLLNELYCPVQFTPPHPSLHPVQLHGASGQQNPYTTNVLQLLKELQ
UniProt P22314: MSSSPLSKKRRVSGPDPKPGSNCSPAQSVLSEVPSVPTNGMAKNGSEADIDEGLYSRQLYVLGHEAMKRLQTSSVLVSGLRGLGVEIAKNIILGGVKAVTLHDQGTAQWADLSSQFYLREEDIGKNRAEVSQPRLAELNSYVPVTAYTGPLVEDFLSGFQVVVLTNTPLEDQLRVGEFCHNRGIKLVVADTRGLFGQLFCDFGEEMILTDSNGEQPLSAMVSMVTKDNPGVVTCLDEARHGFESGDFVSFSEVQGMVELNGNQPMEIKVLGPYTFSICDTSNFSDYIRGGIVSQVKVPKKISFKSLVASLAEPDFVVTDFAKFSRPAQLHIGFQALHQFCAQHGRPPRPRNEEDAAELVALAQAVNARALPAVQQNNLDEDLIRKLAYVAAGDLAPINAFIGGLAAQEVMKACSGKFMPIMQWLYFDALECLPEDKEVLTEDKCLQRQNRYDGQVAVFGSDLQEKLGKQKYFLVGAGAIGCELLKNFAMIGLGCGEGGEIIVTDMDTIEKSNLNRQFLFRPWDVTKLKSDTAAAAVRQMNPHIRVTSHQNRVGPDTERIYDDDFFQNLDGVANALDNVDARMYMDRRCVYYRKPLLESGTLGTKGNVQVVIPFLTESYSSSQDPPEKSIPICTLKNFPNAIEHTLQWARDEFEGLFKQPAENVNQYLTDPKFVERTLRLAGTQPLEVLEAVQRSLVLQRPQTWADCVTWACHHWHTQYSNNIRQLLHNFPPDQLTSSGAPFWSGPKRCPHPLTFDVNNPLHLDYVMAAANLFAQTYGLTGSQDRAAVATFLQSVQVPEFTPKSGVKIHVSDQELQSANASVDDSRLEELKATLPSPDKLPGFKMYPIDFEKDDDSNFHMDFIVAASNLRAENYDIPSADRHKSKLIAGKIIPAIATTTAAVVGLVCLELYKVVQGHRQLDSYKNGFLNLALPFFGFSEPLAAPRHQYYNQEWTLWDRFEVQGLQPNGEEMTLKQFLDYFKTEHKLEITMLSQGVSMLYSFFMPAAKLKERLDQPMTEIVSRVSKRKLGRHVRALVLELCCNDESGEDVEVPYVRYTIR
UniProt P49459, whole entry, looked up: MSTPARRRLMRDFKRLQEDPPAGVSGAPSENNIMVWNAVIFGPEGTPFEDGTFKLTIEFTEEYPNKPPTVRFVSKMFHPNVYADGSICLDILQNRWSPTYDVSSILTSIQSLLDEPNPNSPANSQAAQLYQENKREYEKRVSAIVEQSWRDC
UniProt P0CG48, whole entry, looked up: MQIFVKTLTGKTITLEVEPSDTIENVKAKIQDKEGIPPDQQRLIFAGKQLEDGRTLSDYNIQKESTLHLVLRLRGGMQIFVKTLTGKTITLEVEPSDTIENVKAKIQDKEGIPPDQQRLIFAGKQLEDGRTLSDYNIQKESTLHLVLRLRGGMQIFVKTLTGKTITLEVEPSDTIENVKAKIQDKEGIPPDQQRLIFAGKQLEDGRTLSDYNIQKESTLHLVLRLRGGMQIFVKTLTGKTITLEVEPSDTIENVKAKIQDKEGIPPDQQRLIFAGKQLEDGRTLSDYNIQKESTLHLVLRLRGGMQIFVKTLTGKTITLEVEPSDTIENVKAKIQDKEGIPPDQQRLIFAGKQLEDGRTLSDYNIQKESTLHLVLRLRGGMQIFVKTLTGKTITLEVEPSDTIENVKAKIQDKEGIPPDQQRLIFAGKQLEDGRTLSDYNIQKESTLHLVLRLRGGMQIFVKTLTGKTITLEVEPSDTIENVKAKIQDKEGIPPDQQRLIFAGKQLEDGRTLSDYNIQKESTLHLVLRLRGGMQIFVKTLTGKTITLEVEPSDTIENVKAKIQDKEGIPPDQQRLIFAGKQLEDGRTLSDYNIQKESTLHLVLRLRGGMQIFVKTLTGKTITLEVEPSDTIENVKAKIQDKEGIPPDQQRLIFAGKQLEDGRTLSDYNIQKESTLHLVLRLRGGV
UniProt Q16881, whole entry, looked up: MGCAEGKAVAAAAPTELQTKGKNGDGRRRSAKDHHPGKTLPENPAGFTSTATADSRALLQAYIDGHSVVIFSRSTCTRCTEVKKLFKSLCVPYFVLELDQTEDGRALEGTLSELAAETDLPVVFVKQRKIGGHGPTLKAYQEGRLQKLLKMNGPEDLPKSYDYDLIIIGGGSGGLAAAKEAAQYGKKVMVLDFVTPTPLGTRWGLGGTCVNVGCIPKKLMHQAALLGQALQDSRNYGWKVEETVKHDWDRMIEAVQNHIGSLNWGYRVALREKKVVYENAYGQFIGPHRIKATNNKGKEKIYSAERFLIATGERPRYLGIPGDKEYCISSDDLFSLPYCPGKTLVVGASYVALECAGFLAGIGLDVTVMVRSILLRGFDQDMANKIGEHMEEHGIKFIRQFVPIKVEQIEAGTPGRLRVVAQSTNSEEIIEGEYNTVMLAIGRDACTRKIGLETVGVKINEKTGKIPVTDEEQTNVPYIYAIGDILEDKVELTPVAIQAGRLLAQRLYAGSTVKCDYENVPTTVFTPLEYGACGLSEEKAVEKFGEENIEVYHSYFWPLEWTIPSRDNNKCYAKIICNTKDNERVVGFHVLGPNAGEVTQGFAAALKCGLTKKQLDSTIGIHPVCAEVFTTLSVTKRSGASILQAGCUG
UniProt P04350, whole entry, looked up: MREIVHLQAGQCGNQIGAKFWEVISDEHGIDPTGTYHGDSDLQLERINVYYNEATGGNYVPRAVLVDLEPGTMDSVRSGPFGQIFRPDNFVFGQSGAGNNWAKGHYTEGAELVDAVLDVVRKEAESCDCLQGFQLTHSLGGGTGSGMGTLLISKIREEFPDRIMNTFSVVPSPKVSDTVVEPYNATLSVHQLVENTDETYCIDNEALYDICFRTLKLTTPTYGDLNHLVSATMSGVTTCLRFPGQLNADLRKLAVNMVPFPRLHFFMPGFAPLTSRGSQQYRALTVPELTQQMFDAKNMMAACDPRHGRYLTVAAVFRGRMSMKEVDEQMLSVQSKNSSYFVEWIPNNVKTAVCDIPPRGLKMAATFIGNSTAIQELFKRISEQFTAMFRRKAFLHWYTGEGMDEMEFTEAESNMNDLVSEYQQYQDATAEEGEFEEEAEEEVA

Key:
Assay in all cases: log2 fold change, soluble protein after heating vs DMSO (PISA); higher = thermal stabilisation; K562 cells, 10 uM, 30 min; active = over 0.2 and 3.5 SD of the protein, either way, in both replicates (recomputed)
[1] = compound: C1=CC=C(C=C1)[C@H](COC2=CC3=C(C=C2)NC(=O)N3)NC(=O)C4=CC=CN(C4=O)CC5=CC(=C(C=C5)F)F
How it was run: (§1)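 Values are thermal stability changes relative to control samples and are taken from duplicates. They are stated as log2 fold changes. Before quantification by TMTpro 16plex LC-MS/MS with equalised channel sums, K562 cells at 2×10^6 cells/mL were treated with 10 μM compound for 30 min, heated in aliquots for 3 min across 48°C-58°C, pooled, extracted in PBS with 0.5% NP-40 at 4°C, and centrifuged at 21,000xg for 90 min to give the soluble supernatant.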

[2] = compound: CC1=C(SC2=C1C(=N[C@H](C3=NN=C(N32)C)CC(=O)N)C4=CC=C(C=C4)Cl)C
How it was run: as §1

[3] = compound: CC1=C2C(=CC=C1)N=C(N(C2=O)C3=CC=CC=C3C)CN4C=NC5=C(N=CN=C54)N
How it was run: as §1

[4] = compound: Cc1sc2c(c1C)C(c1ccc(Cl)cc1)=N[C@@H](CC(=O)OC(C)(C)C)c1nnc(C)n1-2
How it was run: as §1

[5] = compound: c1ccc([C@@H]2C[C@H]2NC2CCNCC2)cc1
How it was run: as §1

Measured: log2 fold change

UBE2G2 (UniProt P60604)
inactive: [1] 0 | [2] 0.147 | [3] -0.056 | [4] -0.317 | [5] -0.039

TUBA1C (UniProt Q9BQE3)
inactive: [1] 0.008 | [2] 0.089 | [3] -0.015 | [4] 0.006 | [5] -0.012

UBE2T (UniProt Q9NPD8)
inactive: [1] -0.053 | [2] 0.071 | [3] 0.094 | [4] -0.018 | [5] -0.047

TXLNG (UniProt Q9NUQ3)
inactive: [1] -0.023 | [2] 0.014 | [3] 0.049 | [4] 0 | [5] 0.036

UBE2K (UniProt D6RDM7)
inactive: [1] -0.308 | [2] -0.035 | [3] 0.001 | [4] -0.144 | [5] 0.103

TXNDC9 (UniProt O14530)
inactive: [1] 0.02 | [2] 0.004 | [3] 0.003 | [4] 0.015 | [5] 0.015

UBE2Z (UniProt Q9H832)
inactive: [1] -0.01 | [2] 0.031 | [3] 0.087 | [4] 0.008 | [5] 0.013

TXN (UniProt P10599)
inactive: [1] -0.068 | [2] -0.028 | [3] -0.066 | [4] 0.011 | [5] 0.04

UBE2G1 (UniProt P62253)
inactive: [1] -0.016 | [2] 0.051 | [3] 0.045 | [4] -0.023 | [5] -0.039

Quoted from above (four entries):
UBE2K (UniProt D6RDM7)
inactive: [1] -0.308 | [2] -0.035 | [3] 0.001 | [4] -0.144 | [5] 0.103

TXNDC9 (UniProt O14530)
inactive: [1] 0.02 | [2] 0.004 | [3] 0.003 | [4] 0.015 | [5] 0.015

UBE2Z (UniProt Q9H832)
inactive: [1] -0.01 | [2] 0.031 | [3] 0.087 | [4] 0.008 | [5] 0.013

TXN (UniProt P10599)
inactive: [1] -0.068 | [2] -0.028 | [3] -0.066 | [4] 0.011 | [5] 0.04

Next part:

TWSG1 (UniProt Q9GZX9)
inactive: [1] -0.024 | [2] -0.009 | [3] 0.003 | [4] 0.02 | [5] -0.015

TUBB (UniProt P07437)
inactive: [1] 0.033 | [2] 0.062 | [3] 0.039 | [4] -0.031 | [5] -0.078

TUBG1 (UniProt P23258)
inactive: [1] 0.02 | [2] 0.001 | [3] 0.072 | [4] 0.015 | [5] 0.041

UBAP1 isoform 4 (UniProt Q9NZ09)
inactive: [1] 0.021 | [2] 0.005 | [3] 0.129 | [4] -0.171 | [5] -0.072

TTI1 (UniProt O43156)
inactive: [1] -0.034 | [2] 0.136 | [3] 0.022 | [4] -0.025 | [5] -0.085

TXNRD2 (UniProt Q9NNW7)
inactive: [1] -0.074 | [2] 0.011 | [3] 0.021 | [4] -0.053 | [5] 0.034

UBA52 (UniProt P62987)
inactive: [1] 0.088 | [2] -0.301 | [3] -0.569 | [4] 0.265 | [5] 0.193

TUBB4A (UniProt M0QYM7)
inactive: [1] -0.091 | [2] 0.184 | [3] 0.378 | [4] 0.178 | [5] -0.059

UBA1 (UniProt P22314)
inactive: [1] -0.162 | [2] 0.044 | [3] 0.134 | [4] 0.044 | [5] -0.08

UBE2A (UniProt P49459)
inactive: [1] 0.023 | [2] 0.037 | [3] 0.043 | [4] 0.047 | [5] -0.085

TYW1 (UniProt Q9NV66)
inactive: [1] 0.017 | [2] -0.022 | [3] 0.039 | [4] -0.005 | [5] -0.091

UBC (UniProt P0CG48)
inactive: [1] 0.023 | [2] 0.087 | [3] 0.058 | [4] -0.019 | [5] -0.061

TXNRD1 (UniProt Q16881)
inactive: [1] -0.066 | [2] 0.086 | [3] 0.023 | [4] -0.031 | [5] -0.032

TTN isoform 12 (UniProt Q8WZ42)
inactive: [1] 0.038 | [2] 0.02 | [3] 0.255 | [4] 0.042 | [5] 0.019

TWF2 (UniProt Q6IBS0)
inactive: [1] -0.038 | [2] 0.044 | [3] 0.038 | [4] 0.013 | [5] -0.04

TUBB4A (UniProt P04350)
inactive: [1] 0.043 | [2] 0 | [3] -0.09 | [4] -0.224 | [5] 0.043
